# Library screen at single concentrations

A: 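Phenotypic screen: M. tuberculosis growth, cholesterol and DPPC medium, 4 days; the read-out is not stated. Concentration: 50 µM. Higher reads as more growth inhibition (inferred: compounds with an IC50 in retests scored well above the rest). About 69,000 compounds were tested under these conditions; 0.54% (about 370) showed 50% or more at least once.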
B: 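Phenotypic screen: M. tuberculosis growth, glucose 7H9 medium, 3 days; the read-out is not stated. Tested at 50 µM. Higher reads as more growth inhibition (inferred: compounds with an IC50 in retests scored well above the rest). About 69,000 compounds were tested under these conditions; 1.1% (about 760) showed 50% or more at least once.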

Each number is a percent effect as filed. How 0% and 100% were set is not recorded. Most values in the screen are low, and negative values occur. This is an unselected part of the compounds tested. Two or more numbers in one place are separate tests of the same structure; such repeats can differ widely.

CS(=O)(=O)NCC(=O)N[C@H]1CN(c2cnccn2)C[C@@H]1C1CC1 read A: -11.15%; B: -38.53%. Result for O=c1[nH]cnc2[nH]c(N3CCCCC3)nc12 was A: 12.13%; B: 1.542% & 24.41%. For Cc1nc(C)n(C2CCCN(C(=O)c3cncnc3C)C2)n1 (stereo not drawn) the result was A: -1.706%; B: -19.34%. For Cc1cc(NC(=O)C(c2cccc(F)c2)N2CCOCC2)ccn1 (stereo not drawn) the result was A: 9.638%; B: 28.77% & -2.958%. Result for Cc1cnc(-c2nc(O)c3c(n2)CN(C(=O)C2CCCO2)CC3)cn1 (stereo not drawn) was A: 18.07%; B: 2.472%. For Cc1ccc(CN2C[C@@H](C(=O)O)[C@H](c3ccccn3)C2)o1 the result was A: -31.38%; B: -22.18%.

Result for [H][C@@]12COC[C@H](C(=O)Nc3cnccn3)[C@]1([H])CN(c1ncc(F)cn1)C2 was A: -7.365%; B: -23.42% & -4.197%. With Cc1ccc(CN(C)C)cc1NC(=O)C1CC=CC1 the screen gave A: 7.809%; B: 15.68%. For CN1CCN(C)c2cc(NC(=O)c3cc[nH]n3)ccc2C1 the result was A: 0.4961% & 3.929%; B: 7.061%. Result for Cc1ccsc1C(Cc1ccccc1)NC(=O)CNC(=O)C1CC1 (stereo not drawn) was A: 1.351%; B: 14.89%. For COc1cc(C(=O)O)ccc1OCC(=O)NC(C)c1ccc(F)cc1 (stereo not drawn) the result was A: -24.57%; B: -17.73%. For Cc1cc2c(=O)n(CC(=O)N3CCn4cccc4C3C(C)C)cnc2s1 (stereo not drawn) the result was A: -7.561% & 3.43%; B: -56.26%.

CCN(C(=O)Nc1nccs1)C(C)c1cccc(O)c1 (stereo not drawn) read A: -7.702%; B: -7.068%. With CC(C)C(N)C1=N/C(=C2\N=CN=N2)NO1 (stereo not drawn) the screen gave A: 8.675%; B: 12.67%. COCCS(=O)(=O)c1ncc(CN(C)C)n1Cc1ccccc1 read A: -21.39%; B: -1.506%. Result for CN(C)CC(=O)N1CCc2sc(C(=O)N3CCN(C)CC3)cc21 was A: -14.32%; B: -1.983%. CCCC1c2cccn2CCN1C(=O)Cn1cnc2sc(C)cc2c1=O (stereo not drawn) read A: 56.68% & 18.73%; B: -24.21%. With Cc1cc(C)n(-c2ccc(C(=O)NCC(c3cccs3)N(C)C)cc2)n1 (stereo not drawn) the screen gave A: -0.1688%; B: 22.73%.

Cc1cccc(C(CNC(=O)NCc2cc[nH]n2)N2CCOCC2)c1 (stereo not drawn) gave A: -5.901%; B: 2.247%. CCC(=O)NCC(=O)NC(Cc1ccccc1)c1sccc1C (stereo not drawn) read A: -9.738%; B: 24.96%. CCc1n[nH]c(C2CN(C(=O)c3ccsc3)CCO2)n1 (stereo not drawn) gave A: -8.054%; B: 17.75%. For CC(C)CCN(c1cn[nH]c1)S(=O)(=O)c1cccc(C#N)c1 the result was A: -20.29%; B: -14.25% & 0.8643%. For Cc1nc(-c2ccsc2)ccc1C(=O)NCCN1CCOCC1 the result was A: 1.028%; B: -15.09%. For O=C(Nc1cccs1)NC(CCCO)c1ccccc1 (stereo not drawn) the result was A: 13.09%; B: -13.93%.

CSc1ccc(-c2cc(CN)nc3ccnn23)cc1.Cl gave A: -7.622%; B: 14.64%.

For reference, 2 entries once more:

| SMILES | A | B |
|---|---|---|
| `CC(C)CCN(c1cn[nH]c1)S(=O)(=O)c1cccc(C#N)c1` | -20.29 | -14.25 & 0.8643 |
| `CCC(=O)NCC(=O)NC(Cc1ccccc1)c1sccc1C` (stereo not drawn) | -9.738 | 24.96 |

Data taken from ChEMBL document CHEMBL3988442, “University of Dundee, Small-Polar-MMV Screening Library” (2021).